From US9617285B2, “1-hydroxy-benzooxaboroles as antiparasitic agents” (priority 2013, dated 2017)
Some entries share one result that the patent states for a list of compounds.

Legend:
[1] = test system: H. contortus; assay: In vivo gerbil antihelminthic test, H. contortus; parameters: species or system Mongolian gerbils (Meriones unguiculatus); conditions: oral gavage and/or subcutaneous injection, dose of not more than 25 mg/kg, triple drug-resistant strain
[2] = test system: Trichostrongylus colubriformis; assay: In vivo gerbil antihelminthic test, T. colubriformis; parameters: species or system Mongolian gerbils (Meriones unguiculatus); conditions: oral gavage and/or subcutaneous injection, dose of not more than 25 mg/kg, benzimidazole-resistant strain
[3] = test system: Haemonchus contortus; assay: In vitro larval migration assay (LMA); conditions: L3 larvae; concentration of no greater than 100 μM

CCc1c(OC[C@](C)(C#N)NC(=O)c2ccc(OC(F)(F)F)cc2)ccc2c1B(O)OC2 (single isomer, unassigned) [Example 4]
efficacy (% reduction in nematode burden) against H. contortus [1]: ≥ 80% | efficacy (% reduction in nematode burden) against T. colubriformis [2]: ≥ 80% | activity (inhibition of migration) [3]: ≥ 50%

C[C@](C#N)(COc1ccc2c(c1Br)B(O)OC2)NC(=O)c1ccc(OC(F)(F)F)cc1 (single isomer, unassigned) [Example 2]
efficacy (% reduction in nematode burden) against H. contortus [1]: ≥ 80% | efficacy (% reduction in nematode burden) against T. colubriformis [2]: ≥ 80% | activity (inhibition of migration) [3]: ≥ 50%

CC(C)Oc1c(OCC(C)(C#N)NC(=O)c2ccc(OC(F)(F)F)cc2)ccc2c1B(O)OC2 (stereo not drawn) [Example 9, N-(2-cyano-1-(1-hydroxy-7-isopropoxy-1,3-dihydrobenzo[c][1,2]oxaborol-6-yloxy)propan-2-yl)-4-(trifluoromethoxy)benzamide]
efficacy (% reduction in nematode burden) against H. contortus [1]: ≥ 80% | efficacy (% reduction in nematode burden) against T. colubriformis [2]: ≥ 80% | activity (inhibition of migration) [3]: ≥ 50%

COc1c(OCC(C)(C#N)NC(=O)c2ccc(OC(F)(F)F)cc2)ccc2c1B(O)OC2 (racemic) [Example 5a, N-(2-cyano-1-(1-hydroxy-7-methoxy-1,3-dihydrobenzo[c][1,2]oxaborol-6-yloxy)propan-2-yl)-4-(trifluoromethoxy)benzamide]
efficacy (% reduction in nematode burden) against H. contortus [1]: ≥ 80% | efficacy (% reduction in nematode burden) against T. colubriformis [2]: ≥ 80% | activity (inhibition of migration) [3]: ≥ 50%
